Source: PMC10664664

Sequences of proteins named here, by UniProt entry; tags and fusion partners are left off.
UniProt P06733: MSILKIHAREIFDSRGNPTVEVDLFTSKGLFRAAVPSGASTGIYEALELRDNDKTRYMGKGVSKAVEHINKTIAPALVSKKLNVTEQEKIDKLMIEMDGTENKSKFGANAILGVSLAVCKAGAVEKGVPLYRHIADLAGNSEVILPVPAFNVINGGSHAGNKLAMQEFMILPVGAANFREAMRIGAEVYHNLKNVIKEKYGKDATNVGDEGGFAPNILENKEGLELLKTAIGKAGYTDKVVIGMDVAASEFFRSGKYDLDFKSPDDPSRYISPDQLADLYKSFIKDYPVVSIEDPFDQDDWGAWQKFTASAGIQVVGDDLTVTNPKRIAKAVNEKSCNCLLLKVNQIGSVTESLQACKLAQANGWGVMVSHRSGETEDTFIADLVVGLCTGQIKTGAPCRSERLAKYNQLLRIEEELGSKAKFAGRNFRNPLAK
UniProt P11413: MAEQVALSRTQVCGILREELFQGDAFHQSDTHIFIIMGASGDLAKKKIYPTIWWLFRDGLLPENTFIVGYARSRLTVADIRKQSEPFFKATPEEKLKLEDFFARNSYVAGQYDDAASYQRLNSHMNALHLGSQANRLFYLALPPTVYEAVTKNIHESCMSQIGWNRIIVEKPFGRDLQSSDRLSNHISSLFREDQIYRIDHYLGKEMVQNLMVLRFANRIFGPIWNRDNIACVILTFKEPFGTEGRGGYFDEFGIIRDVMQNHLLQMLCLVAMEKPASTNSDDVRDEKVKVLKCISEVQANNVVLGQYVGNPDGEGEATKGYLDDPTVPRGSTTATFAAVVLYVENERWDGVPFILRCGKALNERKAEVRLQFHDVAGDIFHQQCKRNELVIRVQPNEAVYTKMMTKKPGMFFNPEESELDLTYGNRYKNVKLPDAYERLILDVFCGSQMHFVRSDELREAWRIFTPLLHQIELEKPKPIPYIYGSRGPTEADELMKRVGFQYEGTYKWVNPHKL

T1: LIPH (Lipase H), full-length human cDNA overexpressed (OE-LIPH) (human) (UniProt Q8WWY8)
T1 sequence: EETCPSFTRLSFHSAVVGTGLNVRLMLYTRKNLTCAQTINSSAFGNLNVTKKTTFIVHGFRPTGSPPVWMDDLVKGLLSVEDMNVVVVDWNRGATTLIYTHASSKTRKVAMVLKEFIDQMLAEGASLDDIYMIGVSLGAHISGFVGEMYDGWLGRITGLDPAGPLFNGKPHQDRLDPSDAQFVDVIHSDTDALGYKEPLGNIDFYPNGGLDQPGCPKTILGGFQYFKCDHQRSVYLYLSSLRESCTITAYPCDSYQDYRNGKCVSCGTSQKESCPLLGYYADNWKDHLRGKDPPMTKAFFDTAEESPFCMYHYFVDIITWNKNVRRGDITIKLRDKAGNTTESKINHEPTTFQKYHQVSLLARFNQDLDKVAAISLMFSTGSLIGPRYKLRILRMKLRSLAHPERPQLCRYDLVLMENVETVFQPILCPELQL

B1: aldolase A (ALDOA) (enzyme, UniProt P04075 1-364)
chain: MPYQYPALTPEQKKELSDIAHRIVAPGKGILAADESTGSIAKRLQSIGTENTEENRRFYRQLLLTADDRVNPCIGGVILFHETLYQKADDGRPFPQVIKSKGGVVGIKVDKGVVPLAGTNGETTTQGLDGLSERCAQYKKDGADFAKWRCVLKIGEHTPSALAIMENANVLARYASICQQNGIVPIVEPEILPDGDHDLKRCQYVTEKVLAAVYKALSDHHIYLEGTLLKPNMVTPGHACTQKFSHEEIAMATVTALRRTVPPAVTGITFLSGGQSEEEASINLNAINKCPLLKPWALTFSYGRALQASALKAWGGKKENLKAAQEEYVKRALANSLACQGKYTPSGQAGAAASESLFVSNHAY
B2: UBE2O, an E2/E3 hybrid ubiquitin-protein ligase (enzyme, UniProt Q9C0C9 1-1292)
chain: MADPAAPTPAAPAPAQAPAPAPEAVPAPAAAPVPAPAPASDSASGPSSDSGPEAGSQRLLFSHDLVSGRYRGSVHFGLVRLIHGEDSDSEGEEEGRGSSGCSEAGGAGHEEGRASPLRRGYVRVQWYPEGVKQHVKETKLKLEDRSVVPRDVVRHMRSTDSQCGTVIDVNIDCAVKLIGTNCIIYPVNSKDLQHIWPFMYGDYIAYDCWLGKVYDLKNQIILKLSNGARCSMNTEDGAKLYDVCPHVSDSGLFFDDSYGFYPGQVLIGPAKIFSSVQWLSGVKPVLSTKSKFRVVVEEVQVVELKVTWITKSFCPGGTDSVSPPPSVITQENLGRVKRLGCFDHAQRQLGERCLYVFPAKVEPAKIAWECPEKNCAQGEGSMAKKVKRLLKKQVVRIMSCSPDTQCSRDHSMEDPDKKGESKTKSEAESASPEETPDGSASPVEMQDEGAEEPHEAGEQLPPFLLKEGRDDRLHSAEQDADDEAADDTDDTSSVTSSASSTTSSQSGSGTSRKKSIPLSIKNLKRKHKRKKNKITRDFKPGDRVAVEVVTTMTSADVMWQDGSVECNIRSNDLFPVHHLDNNEFCPGDFVVDKRVQSCPDPAVYGVVQSGDHIGRTCMVKWFKLRPSGDDVELIGEEEDVSVYDIADHPDFRFRTTDIVIRIGNTEDGAPHKEDEPSVGQVARVDVSSKVEVVWADNSKTIILPQHLYNIESEIEESDYDSVEGSTSGASSDEWEDDSDSWETDNGLVEDEHPKIEEPPIPPLEQPVAPEDKGVVISEEAATAAVQGAVAMAAPMAGLMEKAGKDGPPKSFRELKEAIKILESLKNMTVEQLLTGSPTSPTVEPEKPTREKKFLDDIKKLQENLKKTLDNVAIVEEEKMEAVPDVERKEDKPEGQSPVKAEWPSETPVLCQQCGGKPGVTFTSAKGEVFSVLEFAPSNHSFKKIEFQPPEAKKFFSTVRKEMALLATSLPEGIMVKTFEDRMDLFSALIKGPTRTPYEDGLYLFDIQLPNIYPAVPPHFCYLSQCSGRLNPNLYDNGKVCVSLLGTWIGKGTERWTSKSSLLQVLISIQGLILVNEPYYNEAGFDSDRGLQEGYENSRCYNEMALIRVVQSMTQLVRRPPEVFEQEIRQHFSTGGWRLVNRIESWLETHALLEKAQALPNGVPKASSSPEPPAVAELSDSGQQEPEDGGPAPGEASQGSDSEGGAQGLASASRDHTDQTSETAPDASVPPSVKPKKRRKSYRSFLPEKSGYPDIGFPLFPLSKGFIKSIRGVLTQFRAALLEAGMPECTEDK

target: T1, LIPH (Lipase H), full-length human cDNA overexpressed (OE-LIPH) (human); assay: affinity purification with mass spectrometry; products of co-IP with the FLAG antibody from MIA PaCa-2 cells transfected with NC-vector or OE-LIPH; gel fragments cut from SDS-PAGE, trypsin digest, LC-MS (Q-Exactive)

binding, binds:
ENO1 (from UniProt P06733 1-434) (enzyme), G6PD (from UniProt P11413 1-515) (enzyme), B1, B2

No constants are given. Whether binding was seen depends on the method and setting. Binding seen in cells or lysates may run through a third protein. A yes stands for co-enrichment or nearness to the bait. Other partners may have been found.
